PubChem BioAssay AID602196 – INSERM | 2012
Here is one part, drawn at random, of about 23,000 reagents tested. 455 of all reagents (2%) were called active. 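Active includes both protection and sensitisation; some change values fall well beyond the stated -50 to +50 range.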 Not all columns of the deposit are shown. Not given: the amount of reagent.

Test: 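Modifiers of cisplatin sensitivity in A549 cells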
System: human A549 lung cancer cells
Reagents: siRNA pair against human genes
Timing: 48 h transfection before cisplatin; time from cisplatin to read-out not stated
Challenge: cisplatin at a dose killing half of control-siRNA cells; exact dose and duration not given
Measurement: 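Cisplatin cell death as a shift from the 50% death seen with control siRNA; siRNAs toxic or growth-blocking alone scored 0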
Direction: two-siRNA summed score (-2 to +2): higher = both siRNAs protect from cisplatin killing; -2 means both sensitise; mean protection from cisplatin (shift in death): higher = protection from cisplatin killing
Call rule: 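Each siRNA scores 0 if harmful alone by LDH or WST-1, otherwise +1 if it reduces and -1 if it increases cisplatin killing; a gene is active when both siRNAs agree (sum +2 or -2)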
Meaning of the calls: active = both siRNAs shift cisplatin killing the same way; inactive = no consistent shift, or siRNA harmful alone

GAS2L2 — two-siRNA summed score (-2 to +2) = 0; mean protection from cisplatin (shift in death) (%) = 4.5; Outcome = inactive
JPH2 — two-siRNA summed score (-2 to +2) = 0; mean protection from cisplatin (shift in death) (%) = 5.8; Outcome = inactive
SERPINA5 — two-siRNA summed score (-2 to +2) = 1; mean protection from cisplatin (shift in death) (%) = 6; Outcome = inactive
LOC346545 — two-siRNA summed score (-2 to +2) = 0; mean protection from cisplatin (shift in death) (%) = -1.3; Outcome = inactive
LOC441404 — two-siRNA summed score (-2 to +2) = 0; mean protection from cisplatin (shift in death) (%) = 5.1; Outcome = inactive
ZNF696 — two-siRNA summed score (-2 to +2) = 0; mean protection from cisplatin (shift in death) (%) = 1; Outcome = inactive
MKI67 — two-siRNA summed score (-2 to +2) = 0; mean protection from cisplatin (shift in death) (%) = -7.1; Outcome = inactive
LOC442225 — two-siRNA summed score (-2 to +2) = 0; mean protection from cisplatin (shift in death) (%) = 6.4; Outcome = inactive
LOC440088 — two-siRNA summed score (-2 to +2) = 0; mean protection from cisplatin (shift in death) (%) = 6.8; Outcome = inactive
POU6F1 — two-siRNA summed score (-2 to +2) = 0; mean protection from cisplatin (shift in death) (%) = -34.1; Outcome = inactive
ERCC3 — two-siRNA summed score (-2 to +2) = 0; mean protection from cisplatin (shift in death) (%) = 19.3; Outcome = inactive
LOC440175 — two-siRNA summed score (-2 to +2) = 0; mean protection from cisplatin (shift in death) (%) = 2.9; Outcome = inactive
ZNF292 — two-siRNA summed score (-2 to +2) = 0; mean protection from cisplatin (shift in death) (%) = 18.8; Outcome = inactive
SOX18 — two-siRNA summed score (-2 to +2) = -1; mean protection from cisplatin (shift in death) (%) = -0.5; Outcome = inactive
POLR2J — two-siRNA summed score (-2 to +2) = 0; mean protection from cisplatin (shift in death) (%) = 5.7; Outcome = inactive
ZNF847P — two-siRNA summed score (-2 to +2) = 0; mean protection from cisplatin (shift in death) (%) = 3.5; Outcome = inactive
HAAO — two-siRNA summed score (-2 to +2) = 0; mean protection from cisplatin (shift in death) (%) = 2.1; Outcome = inactive
OR1D4 — two-siRNA summed score (-2 to +2) = 0; mean protection from cisplatin (shift in death) (%) = -0.5; Outcome = inactive
LOC390550 — two-siRNA summed score (-2 to +2) = 0; mean protection from cisplatin (shift in death) (%) = 7.2; Outcome = inactive
UTY — two-siRNA summed score (-2 to +2) = -1; mean protection from cisplatin (shift in death) (%) = -5.4; Outcome = inactive
MSMB — two-siRNA summed score (-2 to +2) = 0; mean protection from cisplatin (shift in death) (%) = 5.1; Outcome = inactive
BAIAP2L1 — two-siRNA summed score (-2 to +2) = 0; mean protection from cisplatin (shift in death) (%) = -0.8; Outcome = inactive
BRSK2 — two-siRNA summed score (-2 to +2) = 1; mean protection from cisplatin (shift in death) (%) = 7.8; Outcome = inactive
EME2 — two-siRNA summed score (-2 to +2) = 0; mean protection from cisplatin (shift in death) (%) = 14.9; Outcome = inactive
LOC389813 — two-siRNA summed score (-2 to +2) = 0; mean protection from cisplatin (shift in death) (%) = 19.1; Outcome = inactive
LOC344405 — two-siRNA summed score (-2 to +2) = 0; mean protection from cisplatin (shift in death) (%) = -5.1; Outcome = inactive
LOC388481 — two-siRNA summed score (-2 to +2) = 0; mean protection from cisplatin (shift in death) (%) = 16.5; Outcome = inactive
POU3F4 — two-siRNA summed score (-2 to +2) = -1; mean protection from cisplatin (shift in death) (%) = -15.1; Outcome = inactive
SLC45A3 — two-siRNA summed score (-2 to +2) = 0; mean protection from cisplatin (shift in death) (%) = 9.1; Outcome = inactive
LOC392582 — two-siRNA summed score (-2 to +2) = 0; mean protection from cisplatin (shift in death) (%) = 5.9; Outcome = inactive
H3C11 — two-siRNA summed score (-2 to +2) = 0; mean protection from cisplatin (shift in death) (%) = 1.8; Outcome = inactive

Entries listed so far whose gene name begins with S or s (3):
SERPINA5 — two-siRNA summed score (-2 to +2) = 1; mean protection from cisplatin (shift in death) (%) = 6; Outcome = inactive
SOX18 — two-siRNA summed score (-2 to +2) = -1; mean protection from cisplatin (shift in death) (%) = -0.5; Outcome = inactive
SLC45A3 — two-siRNA summed score (-2 to +2) = 0; mean protection from cisplatin (shift in death) (%) = 9.1; Outcome = inactive
